In patent US20250270321A1, “METHODS OF TREATING LUNG CANCER BY ADMINISTERING A PD-1 INHIBITOR” (priority 2021, published 2025):

Test system: advanced NSCLC
Assay: EMPOWER-Lung 1 hospitalization and supportive care medication (SCM) utilization, safety population
[1] = total duration of SCM type/treatment-emergent period

With cemiplimab as the substance, how does the “Difference in ratio (CHEMO − CEMI): Anti-anemic” value (SCM utilization ratio) read?
Its value is 211.79 in 1000 days.

What about the “Difference in ratio (CHEMO − CEMI): Antibacterial for systemic use” value (SCM utilization ratio) of the same substance?
Its value is 16.37 in 1000 days.

And the “Difference in ratio (CHEMO − CEMI): Antidiarrheal” value (SCM utilization ratio)?
Its value is −6.65 in 1000 days.

And the “Difference in ratio (CHEMO − CEMI): Antimycotic for systemic use” value (SCM utilization ratio)?
Its value is 1.49 in 1000 days.

What about the “Difference in ratio (CHEMO − CEMI): Antiviral for systemic use” value (SCM utilization ratio) of the same substance?
The value was −0.33 in 1000 days.

And the “Difference in ratio (CHEMO − CEMI): Appetite stimulant” value (SCM utilization ratio)?
The value was 20.49 in 1000 days.

What about the “Difference in ratio (CHEMO − CEMI): Bone disease treatment” value (SCM utilization ratio) of the same substance?
The value was 15.75 in 1000 days.

And the “Difference in ratio (CHEMO − CEMI): Corticosteroid for systemic use” value (SCM utilization ratio)?
Its value is 145.06 in 1000 days.

What about the “Difference in ratio (CHEMO − CEMI): Immunostimulant” value (SCM utilization ratio) of the same substance?
The value was 14.60 in 1000 days.

And the “Difference in ratio (CHEMO − CEMI): Opiate” value (SCM utilization ratio)?
The value was 79.04 in 1000 days.

And the “Difference in ratio (CHEMO − CEMI): PRBC transfusion” value (SCM utilization ratio)?
Its value is 0.37 in 1000 days.

And the “Difference in ratio (CHEMO − CEMI): Platelet transfusion” value (SCM utilization ratio)?
The value was 0.04 in 1000 days.

What about the “Difference in ratio (CHEMO − CEMI): Antiemetic/antinauseant” value (in vivo) of the same substance?
Its value is 202.90 in 1000 days.

And the “SCM utilization ratio: Antiemetic/antinauseant” value (in vivo)?
The value was 2.52 in 1000 days.

What about the “SCM utilization ratio: Anti-anemic” value [1] of the same substance?
The value was 52.49 in 1000 days.

And the “SCM utilization ratio: Antibacterial for systemic use” value [1]?
The value was 22.34 in 1000 days.

What about the “SCM utilization ratio: Antidiarrheal” value [1] of the same substance?
Its value is 10.57 in 1000 days.

What about the “SCM utilization ratio: Antimycotic for systemic use” value [1] of the same substance?
Its value is 0.87 in 1000 days.

What about the “SCM utilization ratio: Antiviral for systemic use” value [1] of the same substance?
The value was 1.16 in 1000 days.

What about the “SCM utilization ratio: Appetite stimulant” value [1] of the same substance?
The value was 5.13 in 1000 days.

And the “SCM utilization ratio: Bone disease treatment” value [1]?
The value was 3.07 in 1000 days.

And the “SCM utilization ratio: Corticosteroid for systemic use” value [1]?
Its value is 26.71 in 1000 days.

And the “SCM utilization ratio: Immunostimulant” value [1]?
Its value is 0.21 in 1000 days.

And the “SCM utilization ratio: Opiate” value [1]?
The value was 70.90 in 1000 days.

What about the “SCM utilization ratio: PRBC transfusion” value [1] of the same substance?
Its value is 0.07 in 1000 days.

What about the “SCM utilization ratio: Platelet transfusion” value [1] of the same substance?
Its value is 0.01 in 1000 days.
